These are yes or no findings as the source states them, for the method shown. In cells and extracts the contact can be indirect. These calls come from enrichment with a bait or labelling near it, and not all partners need be listed.

The chains behind the UniProt entries cited, without tags or fusion partners.
UniProt P51617: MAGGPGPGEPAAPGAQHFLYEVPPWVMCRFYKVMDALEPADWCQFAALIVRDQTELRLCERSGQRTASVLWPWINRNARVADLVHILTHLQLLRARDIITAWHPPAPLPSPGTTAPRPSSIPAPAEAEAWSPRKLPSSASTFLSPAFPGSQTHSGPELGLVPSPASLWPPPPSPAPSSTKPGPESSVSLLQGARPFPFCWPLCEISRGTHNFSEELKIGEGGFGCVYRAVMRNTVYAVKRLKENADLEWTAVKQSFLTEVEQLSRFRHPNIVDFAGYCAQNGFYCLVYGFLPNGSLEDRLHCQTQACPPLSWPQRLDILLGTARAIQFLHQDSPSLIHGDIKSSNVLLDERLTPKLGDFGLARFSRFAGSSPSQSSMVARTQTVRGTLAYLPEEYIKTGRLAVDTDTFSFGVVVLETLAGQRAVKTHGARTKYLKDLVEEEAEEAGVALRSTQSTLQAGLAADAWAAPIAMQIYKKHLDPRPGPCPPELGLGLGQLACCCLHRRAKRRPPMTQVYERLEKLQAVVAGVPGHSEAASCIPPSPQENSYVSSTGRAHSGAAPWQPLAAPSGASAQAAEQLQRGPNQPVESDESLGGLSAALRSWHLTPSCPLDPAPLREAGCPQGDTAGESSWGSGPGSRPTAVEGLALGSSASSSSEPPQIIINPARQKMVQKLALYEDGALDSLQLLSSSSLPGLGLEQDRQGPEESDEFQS

For this experiment, the target named is Interleukin-1 receptor associated kinase 1 (IRAK1), endogenous (human (endogenous in U251)) (UniProt P51617). Kind of experiment: affinity purification with mass spectrometry; immunoprecipitates by anti-IRAK1 and IgG control antibodies from lysate of U251 cells pretreated with MG132 (10 uM, 4 h); LC-MS/MS (Q Exactive, MASCOT).

B1: E3 ubiquitin ligase HECTD3, endogenous (protein, UniProt Q5T447 1-861)
chain: MAGPGPGAVLESPRQLLGRVRFLAEAARSLRAGRPLPAALAFVPREVLYKLYKDPAGPSRVLLPVWEAEGLGLRVGAAGPAPGTGSGPLRAARDSIELRRGACVRTTGEELCNGHGLWVKLTKEQLAEHLGDCGLQEGWLLVCRPAEGGARLVPIDTPNHLQRQQQLFGVDYRPVLRWEQVVDLTYSHRLGSRPQPAEAYAEAVQRLLYVPPTWTYECDEDLIHFLYDHLGKEDENLGSVKQYVESIDVSSYTEEFNVSCLTDSNADTYWESDGSQCQHWVRLTMKKGTIVKKLLLTVDTTDDNFMPKRVVVYGGEGDNLKKLSDVSIDETLIGDVCVLEDMTVHLPIIEIRIVECRDDGIDVRLRGVKIKSSRQRELGLNADLFQPTSLVRYPRLEGTDPEVLYRRAVLLQRFIKILDSVLHHLVPAWDHTLGTFSEIKQVKQFLLLSRQRPGLVAQCLRDSESSKPSFMPRLYINRRLAMEHRACPSRDPACKNAVFTQVYEGLKPSDKYEKPLDYRWPMRYDQWWECKFIAEGIIDQGGGFRDSLADMSEELCPSSADTPVPLPFFVRTANQGNGTGEARDMYVPNPSCRDFAKYEWIGQLMGAALRGKEFLVLALPGFVWKQLSGEEVSWSKDFPAVDSVLVKLLEVMEGMDKETFEFKFGKELTFTTVLSDQQVVELIPGGAGIVVGYGDRSRFIQLVQKARLEESKEQVAAMQAGLLKVVPQAVLDLLTWQELEKKVCGDPEVTVDALRKLTRFEDFEPSDSRVQYFWEALNNFTNEDRSRFLRFVTGRSRLPARIYIYPDKLGYETTDALPESSTCSSTLFLPHYASAKVCEEKLRYAAYNCVAIDTDMSPWEE
Take B1: the binding result is listed as “binds”.

B2: Peroxiredoxin 1 (PRDX1), endogenous (protein, UniProt Q06830 1-199)
chain: MSSGNAKIGHPAPNFKATAVMPDGQFKDISLSDYKGKYVVFFFYPLDFTFVCPTEIIAFSDRAEEFKKLNCQVIGASVDSHFCHLAWVNTPKKQGGLGPMNIPLVSDPKRTIAQDYGVLKADEGISFRGLFIIDDKGILRQITVNDLPVGRSVDETLRLVQAFQFTDKHGEVCPAGWKPGSDTIKPDVQKSKEYFSKQK
Take B2: the binding entry was “binds”.

For the origin of these results see article PMC10082800.
